# Experimental data taken from patent publication US20160289698A1.
# Sequences of proteins named here, by UniProt entry; tags and fusion partners are left off.
# UniProt Q39255: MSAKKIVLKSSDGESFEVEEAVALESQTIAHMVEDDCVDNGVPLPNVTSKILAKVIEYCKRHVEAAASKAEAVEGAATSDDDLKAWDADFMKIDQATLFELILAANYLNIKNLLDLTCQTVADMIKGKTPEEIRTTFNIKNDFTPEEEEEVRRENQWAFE
# These are yes or no findings as the source states them, for the method shown. For some of these results: Binding seen in cells or lysates may run through a third protein. Some entries that bind do so weakly or less than the wild type. For some of these results: Sequences can lack the tags named with a protein.
# T1: HA-tagged ARR12 (Arabidopsis) (UniProt P62598)
# T1 sequence (looked up): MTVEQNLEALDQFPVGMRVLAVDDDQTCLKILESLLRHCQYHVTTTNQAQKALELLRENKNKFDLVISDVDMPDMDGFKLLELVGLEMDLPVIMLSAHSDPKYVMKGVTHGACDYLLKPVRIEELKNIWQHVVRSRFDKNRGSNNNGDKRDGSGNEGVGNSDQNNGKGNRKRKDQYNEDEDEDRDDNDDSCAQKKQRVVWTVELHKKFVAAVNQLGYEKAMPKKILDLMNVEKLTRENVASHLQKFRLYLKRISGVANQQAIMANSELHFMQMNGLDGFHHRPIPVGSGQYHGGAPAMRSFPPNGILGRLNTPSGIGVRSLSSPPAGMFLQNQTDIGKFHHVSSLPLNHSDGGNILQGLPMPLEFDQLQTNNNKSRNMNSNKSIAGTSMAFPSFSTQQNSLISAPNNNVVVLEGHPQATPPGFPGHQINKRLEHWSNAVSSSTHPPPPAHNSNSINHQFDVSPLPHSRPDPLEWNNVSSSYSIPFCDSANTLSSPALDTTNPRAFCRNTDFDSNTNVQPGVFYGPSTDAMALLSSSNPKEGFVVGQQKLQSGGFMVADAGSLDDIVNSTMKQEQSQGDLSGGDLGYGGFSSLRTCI
# T2: ARR1 (1-154) (Arabidopsis) (UniProt Q940D0)
# T2 sequence (looked up): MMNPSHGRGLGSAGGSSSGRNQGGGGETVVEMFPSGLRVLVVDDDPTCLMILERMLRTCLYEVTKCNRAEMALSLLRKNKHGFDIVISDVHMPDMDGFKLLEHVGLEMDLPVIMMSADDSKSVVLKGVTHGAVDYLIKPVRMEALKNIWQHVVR
# What was measured:
# [1] = molecular target: ASK1, an Arabidopsis Skp1 protein of the SCF complex (Arabidopsis) (UniProt Q39255); assay: BiFC (YFP^N/YFP^C fusions) in Arabidopsis protoplasts
# [2] = molecular target: T1, HA-tagged ARR12 (Arabidopsis); assay: co-immunoprecipitation with anti-GFP agarose from transfected Arabidopsis protoplasts, anti-HA blot
# [3] = molecular target: T2, ARR1 (1-154) (Arabidopsis); assay: BiFC with ARR fragments; the weaker of the two interactions
Binder,binding [1],further results
"GFP-tagged KMD1 protein (protein, not shown: large carriers; small tags and cut ends) MELIPNLPDDVARECLLRSSYQQFPVIASVCRAWNREVSLSQFLHQRKASRHSQELLILSQARVDPAGSGKIIATPEYRISVLESGSGLWTELPPIPGQTKGLPLFCRLVSVGSDLIVLGGLDPITWQAHDSVFVFSFLTSKWRVGATMPGVRRSFFGCASDSDRTVLVAGGHNEEKCALTSAMVYDVSEDKWTFLPDMARERDECKAVFHAGRFHVIGGYATEEQGQFSKTAESFDVSTWEWGPLTEDFLDDTGDTVSPPTCVAGGDLYACWGGDVMMFLNDKWQKVGQIPADVYNVTYVAVRPGMLIVIGNGKALAGYGEATVGYICDLSSSRWVKLETHGGHVQAGCFLEV",,binding [2]: binds
"KISS ME DEADLY 1 (KMD1) (protein, Arabidopsis, UniProt Q9M8L2 1-354, looked up) MELIPNLPDDVARECLLRSSYQQFPVIASVCRAWNREVSLSQFLHQRKASRHSQELLILSQARVDPAGSGKIIATPEYRISVLESGSGLWTELPPIPGQTKGLPLFCRLVSVGSDLIVLGGLDPITWQAHDSVFVFSFLTSKWRVGATMPGVRRSFFGCASDSDRTVLVAGGHNEEKCALTSAMVYDVSEDKWTFLPDMARERDECKAVFHAGRFHVIGGYATEEQGQFSKTAESFDVSTWEWGPLTEDFLDDTGDTVSPPTCVAGGDLYACWGGDVMMFLNDKWQKVGQIPADVYNVTYVAVRPGMLIVIGNGKALAGYGEATVGYICDLSSSRWVKLETHGGHVQAGCFLEV",,binding [3]: binds

# Further lines, with some results ahead:
binding [1],Binder,further results
binds,ELIPDLPETVAYECLLRSSYKQFPLMASVCKLWQREISLSDFFRHR [KMD2F-box],
binds,ELIPNLPDDVARECLLRSSYQQFPVIASVCRAWNREVSLSQFLHQR [KMD1F-box],
